In assay [1] the target is adenosine kinase (mouse (endogenous in C2C12 and in C57BL/6 tibialis anterior muscle)) (UniProt P55264). Briefly: co-IP; total protein from mouse TA muscles 5 days after cardiotoxin injection in RIPA lysis buffer, precleared with anti-species-specific IgG beads, incubated with PFKFB3 and ADK antibodies for 3 h at 4 °C, then protein A/G agarose beads; Western blotting. On the technique in general: A western blot detects proteins with antibodies after separation by electrophoresis.

Chains of the proteins cited; added tags and fusions are not shown.
UniProt P55264: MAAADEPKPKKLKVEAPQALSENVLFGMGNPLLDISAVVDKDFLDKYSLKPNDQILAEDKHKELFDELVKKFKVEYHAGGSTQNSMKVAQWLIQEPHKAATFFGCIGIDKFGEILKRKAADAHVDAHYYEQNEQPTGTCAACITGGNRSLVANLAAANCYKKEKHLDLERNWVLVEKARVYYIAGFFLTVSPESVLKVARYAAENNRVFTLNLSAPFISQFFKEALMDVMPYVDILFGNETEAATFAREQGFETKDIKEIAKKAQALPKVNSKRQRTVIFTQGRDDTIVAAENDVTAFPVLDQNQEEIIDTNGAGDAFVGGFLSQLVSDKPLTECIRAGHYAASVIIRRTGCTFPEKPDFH
UniProt P10085: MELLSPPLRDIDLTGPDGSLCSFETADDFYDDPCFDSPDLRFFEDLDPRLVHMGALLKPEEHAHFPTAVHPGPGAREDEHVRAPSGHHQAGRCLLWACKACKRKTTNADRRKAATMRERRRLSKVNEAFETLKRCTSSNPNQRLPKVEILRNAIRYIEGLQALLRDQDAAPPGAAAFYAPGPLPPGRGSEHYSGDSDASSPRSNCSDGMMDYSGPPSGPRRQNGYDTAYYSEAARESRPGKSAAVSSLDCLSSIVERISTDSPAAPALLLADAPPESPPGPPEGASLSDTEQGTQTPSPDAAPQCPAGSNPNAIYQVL

In assay [2] the target is T1, 6-phosphofructo-2-kinase/fructose-2,6-biphosphatase 3 (mouse (endogenous in C2C12 and in C57BL/6 tibialis anterior muscle)) (UniProt Q7TS91).
T1 sequence: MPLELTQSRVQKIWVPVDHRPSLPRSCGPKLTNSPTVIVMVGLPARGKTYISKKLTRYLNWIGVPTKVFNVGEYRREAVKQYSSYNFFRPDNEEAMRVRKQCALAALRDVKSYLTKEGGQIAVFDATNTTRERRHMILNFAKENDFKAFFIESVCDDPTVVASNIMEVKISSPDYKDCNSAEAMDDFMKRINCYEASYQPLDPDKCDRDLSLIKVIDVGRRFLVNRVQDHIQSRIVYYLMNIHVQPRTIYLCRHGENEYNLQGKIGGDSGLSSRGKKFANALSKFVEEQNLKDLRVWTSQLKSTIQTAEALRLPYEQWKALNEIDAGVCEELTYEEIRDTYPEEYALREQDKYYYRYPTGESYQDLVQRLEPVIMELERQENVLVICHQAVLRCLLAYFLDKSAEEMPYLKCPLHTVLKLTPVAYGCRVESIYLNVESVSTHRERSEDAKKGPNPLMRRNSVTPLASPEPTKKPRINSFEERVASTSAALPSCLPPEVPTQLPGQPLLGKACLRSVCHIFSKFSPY
The description is as above.

The target of assay [3] is T1, 6-phosphofructo-2-kinase/fructose-2,6-biphosphatase 3 (mouse (endogenous in C2C12 and in C57BL/6 tibialis anterior muscle)). Briefly: co-IP; total protein from C2C12 cells in RIPA buffer, precleared with anti-species-specific IgG beads, incubated with antibody, then protein A/G agarose beads; Western blotting.

No constants are given. Whether binding was seen depends on the method and setting. Binding seen in cells or lysates may run through a third protein. Some entries that bind do so weakly or less than the wild type.

Take MYOD1 (from UniProt P10085 1-318): the values for the binding result in assay [1] and in assay [2] were “no binding” and “binds”, respectively.
Consider “adenosine kinase (from UniProt P55264 1-361) (enzyme)”, for which the binding entry in assay [3] and in assay [2] was “binds” throughout.

For the origin of these results see paper PMC12733700.
